Test results from paper PMC7819943, “Rice protein-binding microarrays: a tool to detect cis-acting elements near promoter regions in rice”.
The list shows a part of the results.

Protein sequences, listed by entry. Tags and fused reporters are not part of them.
UniProt Q0JBA9, entry or part of it: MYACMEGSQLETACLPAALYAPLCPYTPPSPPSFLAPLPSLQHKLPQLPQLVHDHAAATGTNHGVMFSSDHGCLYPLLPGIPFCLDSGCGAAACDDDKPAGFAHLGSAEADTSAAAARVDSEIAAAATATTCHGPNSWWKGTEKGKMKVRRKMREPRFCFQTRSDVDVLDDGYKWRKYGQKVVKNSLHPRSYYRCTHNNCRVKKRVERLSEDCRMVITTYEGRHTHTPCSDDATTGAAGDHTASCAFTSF

The sequences below were run against OsWRKY34 (Oryza sativa, UniProt Q0JBA9 1-250) (assay: protein-binding microarray (RPBM); PBS, 2% BSA, 51.3 ng/ul salmon testes DNA, 50 uM zinc acetate, 200 nM TF, 25 C, 1 h; high values mean tight binding). Details: protein: recombinant; tags: N-terminal polyhistidine and DsRed monomer fusion (pET32a); label: CyDye5-dUTP incorporated in the synthesized complementary strand; 3' TTTTT single-stranded linker to array surface; dsDNA, one strand shown.
How it was run: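 An Axon 4000B scanner gave the binding signal as per-feature fluorescence intensity in arbitrary units. This followed washing of a custom Agilent array that had been incubated for 1 h at 25 °C with 200 nM protein in PBS, 2% BSA, salmon testes DNA and 50 µM zinc acetate. The proteins were transcription factors fused at the N-terminus to polyhistidine and DsRed, expressed in E. coli BL21-CodonPlus and purified on Ni–NTA.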

Sequence | binding signal
GCAGACAGAGTAAGTCAAGCCACCAAAGTTGACTGATTGCCGGAGTCACCTAGTGCAG | 8380 fluorescence intensity (a.u.)
CCTTTTCGCCTGCGCTTGGTGAGGGCAGGTCACAGGAATCCGGAGTCACCTAGTGCAG | 9500 fluorescence intensity (a.u.)
CGAGCTGTTCAGGGCTAATCGCCACGTTTCGACGGTAACCCGGAGTCACCTAGTGCAG | 8850 fluorescence intensity (a.u.)
CTGTTCGTGCCAGATGTGATCTTAGCCGCTTATACCTAATCGGAGTCACCTAGTGCAG | 8980 fluorescence intensity (a.u.)
CGCCCGCATTTCCTCTCTCTCCGTCGCCGCTGCGCCACCCCGGAGTCACCTAGTGCAG | 8310 fluorescence intensity (a.u.)
CACCTTTGCATTTTGGTTAGCATTCTCTCAAAATATTATCCGGAGTCACCTAGTGCAG | 11900 fluorescence intensity (a.u.)
CTAAAATTTCCTTATGTTTTCTTCTTCTTCTAGTTATGTGCGGAGTCACCTAGTGCAG | 8800 fluorescence intensity (a.u.)
CTCCAGGGTGGGCTGTCATGCATGTGTTGGTGCGGTGGGACGGAGTCACCTAGTGCAG | 14500 fluorescence intensity (a.u.)
CTATGATTGGTCAAGTGCTGTTGCTATTTCTCTGCTGATACGGAGTCACCTAGTGCAG | 10200 fluorescence intensity (a.u.)
GCTCTGTTCGCTCCAGTTTTCGTCCTGGACACTCATTTTGCGGAGTCACCTAGTGCAG | 11500 fluorescence intensity (a.u.)
GTCCAATACACATATTCTCTACAGCCTCATCGATGTTTTTCGGAGTCACCTAGTGCAG | 8370 fluorescence intensity (a.u.)
GATCCTACAACTGACAATCTACTCCTTTTGGTCCTGCAGCCGGAGTCACCTAGTGCAG | 12600 fluorescence intensity (a.u.)
CCATCTCTTCCCATGGTGTCATTCTGCTAAAAATTTCATCCGGAGTCACCTAGTGCAG | 10400 fluorescence intensity (a.u.)
CCTCCATGACGCGTCTCACCTCCGCGGCTATCTCCCCGTACGGAGTCACCTAGTGCAG | 8860 fluorescence intensity (a.u.)
CCTCACCTGACCCCATCTCCGCCGTCCCTGCCATTCGCAGCGGAGTCACCTAGTGCAG | 8170 fluorescence intensity (a.u.)
TCTCCCTTCAAATCTAGTTTTTTTTTTATTTGATGTTGTTCGGAGTCACCTAGTGCAG | 8630 fluorescence intensity (a.u.)
ACTGGAGTTGGCATCCTACCAACCTGCACAGCTGAACTGCCGGAGTCACCTAGTGCAG | 8120 fluorescence intensity (a.u.)
CCCGGATCCGGCCACGCCGCCCTTTTCCGGCGAGATCCACCGGAGTCACCTAGTGCAG | 8570 fluorescence intensity (a.u.)
GCTTTCCGTCCACCTGGTCCGACCCAACCAGCTCCGTCTCCGGAGTCACCTAGTGCAG | 8810 fluorescence intensity (a.u.)
ATCATTTATTTTATTATGACTTGATTCGTCATCAAATGTTCGGAGTCACCTAGTGCAG | 8060 fluorescence intensity (a.u.)
TGTTTTCCACGTGTTTCTTCCACAAATCGCTTGGCGCCGCCGGAGTCACCTAGTGCAG | 10200 fluorescence intensity (a.u.)

Five records drawn at random from the list so far, as already listed:
Sequence | binding signal
CCTCCATGACGCGTCTCACCTCCGCGGCTATCTCCCCGTACGGAGTCACCTAGTGCAG | 8860 fluorescence intensity (a.u.)
CCATCTCTTCCCATGGTGTCATTCTGCTAAAAATTTCATCCGGAGTCACCTAGTGCAG | 10400 fluorescence intensity (a.u.)
CCTTTTCGCCTGCGCTTGGTGAGGGCAGGTCACAGGAATCCGGAGTCACCTAGTGCAG | 9500 fluorescence intensity (a.u.)
GTCCAATACACATATTCTCTACAGCCTCATCGATGTTTTTCGGAGTCACCTAGTGCAG | 8370 fluorescence intensity (a.u.)
CGAGCTGTTCAGGGCTAATCGCCACGTTTCGACGGTAACCCGGAGTCACCTAGTGCAG | 8850 fluorescence intensity (a.u.)

(cont.)

Sequence | binding signal
CCCCATTTTCTTTGTTTCTACTTCTCTTTCCCTTTCTTGTCGGAGTCACCTAGTGCAG | 10700 fluorescence intensity (a.u.)
GTTAATGGAAGCGATTTTTTACTGTATGTTGTGCCGACTCCGGAGTCACCTAGTGCAG | 8610 fluorescence intensity (a.u.)
CCTTTTTTTTTCCGAGTGTGTGGCTCTCAGATGGAGTTAGCGGAGTCACCTAGTGCAG | 8450 fluorescence intensity (a.u.)
ATTCAACAGTCACCACCAGCTAATCCCTTTCAACTTGCCACGGAGTCACCTAGTGCAG | 9840 fluorescence intensity (a.u.)
ATTTTTTCCTTCATTATTTGTTCAGCTCTTGCTTCATGCTCGGAGTCACCTAGTGCAG | 10500 fluorescence intensity (a.u.)
GTTTTTGATTCACCGGGTAGGTAAACATTATTGCATTTCTCGGAGTCACCTAGTGCAG | 9000 fluorescence intensity (a.u.)
AGGAGGTGTTGTTTCTTGCGATCTTGGGTTGATTGATATGCGGAGTCACCTAGTGCAG | 8460 fluorescence intensity (a.u.)
GCTAAACTTGCGATTTCGTCTAGCCGACCTATAATTTTGTCGGAGTCACCTAGTGCAG | 8820 fluorescence intensity (a.u.)
GCCGCGCCCGCGTCACCACCGCTACCGCCCGCGCGTCCCTCGGAGTCACCTAGTGCAG | 8940 fluorescence intensity (a.u.)
TTCGCTTTGATGGACGGCTCAGATCGGCTCCTAATCCATCCGGAGTCACCTAGTGCAG | 9700 fluorescence intensity (a.u.)
TTGCGGCATTGAAGGTGGAGGAGGAGGAGGAGGTGGTGGTCGGAGTCACCTAGTGCAG | 8380 fluorescence intensity (a.u.)
CGCCTGTGCAGAGTACTCTGCTTTGTACTCTTTTGTTAAGCGGAGTCACCTAGTGCAG | 8540 fluorescence intensity (a.u.)
CAGATAAAAACACTACATACATATAGCTATCATACGCGATCGGAGTCACCTAGTGCAG | 8600 fluorescence intensity (a.u.)
GGCCAGAACGGCCCATGAATAATTCCCTGTGGACCAGGCCCGGAGTCACCTAGTGCAG | 8070 fluorescence intensity (a.u.)
CACCACTCCCAACGCGTGGGCCACATCCGGGCCATCCAATCGGAGTCACCTAGTGCAG | 8480 fluorescence intensity (a.u.)
AATAAACCATGGTGTTTGTATTGGTGTGTTGGTGACTACGCGGAGTCACCTAGTGCAG | 8260 fluorescence intensity (a.u.)
TATTATTATTATTTCATTTTTGCTGTTGGGTTGTGAACTACGGAGTCACCTAGTGCAG | 8820 fluorescence intensity (a.u.)
TAGCGCTGGGCTGTCACTTTTTTTTGTGTATGAATTATTTCGGAGTCACCTAGTGCAG | 9990 fluorescence intensity (a.u.)
GGCTCGTGCACCTGCTCTCGTCTTTTCCACCGCTTTTTTTCGGAGTCACCTAGTGCAG | 16800 fluorescence intensity (a.u.)
CACCCCGCGCCCTAATCTCCGTCACGCCCTTCGCAAGCACCGGAGTCACCTAGTGCAG | 8590 fluorescence intensity (a.u.)
CCCACCACCACCATCTCCACCTTCGGTTGTCATCTAAATACGGAGTCACCTAGTGCAG | 13300 fluorescence intensity (a.u.)

Sequence | binding signal
ACGCCCAAGCATATACTGCCATCCGGGCCCCACCCTACACCGGAGTCACCTAGTGCAG | 9850 fluorescence intensity (a.u.)
TTTTACTCTTTTACCCTCCGTAGAACCCTACCAAATTGTCCGGAGTCACCTAGTGCAG | 8320 fluorescence intensity (a.u.)
AAACTCGACCCCAGCTCATTCTTTGGTCATTTCACTTTTGCGGAGTCACCTAGTGCAG | 9830 fluorescence intensity (a.u.)
GATGTGTAGAACTGTACTTATTTTGGGATGGTGGGAGTATCGGAGTCACCTAGTGCAG | 10000 fluorescence intensity (a.u.)
AAAATTGCTCTTCGCTATAATGGCCTTGTTTGGATCCTCCCGGAGTCACCTAGTGCAG | 10200 fluorescence intensity (a.u.)
TTTCCTGTCCTCGCTCGCCATCATGGCCGTATAAAAATGTCGGAGTCACCTAGTGCAG | 10400 fluorescence intensity (a.u.)
TTAGTTCAGTCACCAATTTGTTACCTCTTAGGATGCTTCTCGGAGTCACCTAGTGCAG | 8620 fluorescence intensity (a.u.)
ACATGGGACCCACCACCAAACTTTTTTTTCACGTGGGCCCCGGAGTCACCTAGTGCAG | 11300 fluorescence intensity (a.u.)
ATCGTCCACTGATTCCTTCTTCATTCCGCTACATCGATCTCGGAGTCACCTAGTGCAG | 8710 fluorescence intensity (a.u.)
AAATCGCCCGGACTGTCAATATTTTCTGCGGCTAATAAAACGGAGTCACCTAGTGCAG | 9060 fluorescence intensity (a.u.)
AAAACGCCCAATACGTACACCGCGCCCGCGTCACGTCACCCGGAGTCACCTAGTGCAG | 8390 fluorescence intensity (a.u.)
TCTGCAAATTAATAATTGAGCCGTCCATTTCACCATTAGACGGAGTCACCTAGTGCAG | 13400 fluorescence intensity (a.u.)
TTTGCGTATTTTTATTGATTCCTCATTTGCATTTTTCAGTCGGAGTCACCTAGTGCAG | 11700 fluorescence intensity (a.u.)
GTACCAATTTCACTCATCCATTCCTGATGTCAATTAACTGCGGAGTCACCTAGTGCAG | 10200 fluorescence intensity (a.u.)
TCACCATGCCACCTCAACTTTCACCATTAAACAAGAAAACCGGAGTCACCTAGTGCAG | 8460 fluorescence intensity (a.u.)
CGTTCCTATCAAATTCCTTTGTTTTTCTCATTCCTTCATTCGGAGTCACCTAGTGCAG | 8040 fluorescence intensity (a.u.)
TACACCTCTAATTATCCGCTTCACATGCTCGCTCTCTTCTCGGAGTCACCTAGTGCAG | 10400 fluorescence intensity (a.u.)
GGTCATGCTTTGCTCCGCCCACATGTCCCTACTGGCTGCTCGGAGTCACCTAGTGCAG | 9170 fluorescence intensity (a.u.)
GTCGTCGTCCTCTTGTGATCTTGTTTTCCCGGCGTCGTGACGGAGTCACCTAGTGCAG | 13900 fluorescence intensity (a.u.)
ATTTTTTTTCCCTTGCATCATATACTCCGTATCAAATTATCGGAGTCACCTAGTGCAG | 8210 fluorescence intensity (a.u.)
GGTCCAGCTTGTCCCATTGATCTCTCTTCACTGAAATCCACGGAGTCACCTAGTGCAG | 10300 fluorescence intensity (a.u.)

Sequence | binding signal
CTTTTTGTGAGTTTCTTTTTCTTCACCTCCACTTCTTCCACGGAGTCACCTAGTGCAG | 9260 fluorescence intensity (a.u.)
ATACTCGTACACTCGCCGAATAGCCGTGTTTTTTTTAGCCCGGAGTCACCTAGTGCAG | 10600 fluorescence intensity (a.u.)
GTAGGGTTTACGTGCGTGCGTTGTGATTGTCTATGTTGTACGGAGTCACCTAGTGCAG | 8360 fluorescence intensity (a.u.)
CTAGATTCGTTTGTCATTGTTAACAATTTTTCGAGGAGCTCGGAGTCACCTAGTGCAG | 9130 fluorescence intensity (a.u.)
TGCGTCTCGAAATATCCGGCTTTCTTGTTGTGCGATTTGGCGGAGTCACCTAGTGCAG | 8960 fluorescence intensity (a.u.)
ATAGGATGCATCTGTTCGCTTTTGCGGCTGCTGTTTTGCACGGAGTCACCTAGTGCAG | 9350 fluorescence intensity (a.u.)
TACTACCCGTCGTCGTCGTCATCTTCTTCTTCCTGGTATTCGGAGTCACCTAGTGCAG | 10000 fluorescence intensity (a.u.)
CGGTGGTGGTGGATGCTGGCGCTGGCGGTGGGCGCGAGCTCGGAGTCACCTAGTGCAG | 10100 fluorescence intensity (a.u.)
ATAAGACGAATGGTCAAATATGTGAGAAAAAGTCAACGGCCGGAGTCACCTAGTGCAG | 11100 fluorescence intensity (a.u.)
GCAGTTGGTGACTTGGTTCGTTCCGCACACTCCACTCCACCGGAGTCACCTAGTGCAG | 8260 fluorescence intensity (a.u.)
GGGGATGGGGATTCGATGTGTCTATGCGTGGGCCCTGGTTCGGAGTCACCTAGTGCAG | 11000 fluorescence intensity (a.u.)
CTCGTTCGCGCTCTCTCTCTCTCTCTCTACAACATCTCTACGGAGTCACCTAGTGCAG | 10300 fluorescence intensity (a.u.)
CACAACACCACAGCATGACCTTCGCGGCTTCGCCTATCATCGGAGTCACCTAGTGCAG | 8520 fluorescence intensity (a.u.)
CCAGTGAATTACATTTTTGCCCGATCCCGTCGCGAACTCCCGGAGTCACCTAGTGCAG | 8750 fluorescence intensity (a.u.)
TTTTCCTGTTGCAATCTACTGGGTATTTTTGCTAGTAAGACGGAGTCACCTAGTGCAG | 8140 fluorescence intensity (a.u.)
CCTCACAATTCTCTTCGTTTCTTTTTTCTTGCTGATAAGTCGGAGTCACCTAGTGCAG | 9860 fluorescence intensity (a.u.)
CGCCAACGTCTCTCTCCCCAGCTCGCCGCCGCCGCCTCTCCGGAGTCACCTAGTGCAG | 9840 fluorescence intensity (a.u.)
CCGTCTCGCCACCCCACACCCAAGGCCGGCGACTCCTTCGCGGAGTCACCTAGTGCAG | 8340 fluorescence intensity (a.u.)
ACTACATCCTCCCATACTTCCTGTAGTCAAATCGGGGAACCGGAGTCACCTAGTGCAG | 8060 fluorescence intensity (a.u.)
TTCGTTGGTTTGGGGAGGAAGAAAGGAATGGAAGCACCGACGGAGTCACCTAGTGCAG | 9040 fluorescence intensity (a.u.)
GTTCCTGGTTTGTGTGACACGTGGGAGAGGGGAATAGTACCGGAGTCACCTAGTGCAG | 9360 fluorescence intensity (a.u.)

Copied from the listing for reference:
Sequence | binding signal
ATACTCGTACACTCGCCGAATAGCCGTGTTTTTTTTAGCCCGGAGTCACCTAGTGCAG | 10600 fluorescence intensity (a.u.)
GTAGGGTTTACGTGCGTGCGTTGTGATTGTCTATGTTGTACGGAGTCACCTAGTGCAG | 8360 fluorescence intensity (a.u.)
